{"sequences": {"note": "The chains behind the UniProt entries cited, without tags or fusion partners. Residues count along the entry.", "UniProt P26663, 1027-1208": "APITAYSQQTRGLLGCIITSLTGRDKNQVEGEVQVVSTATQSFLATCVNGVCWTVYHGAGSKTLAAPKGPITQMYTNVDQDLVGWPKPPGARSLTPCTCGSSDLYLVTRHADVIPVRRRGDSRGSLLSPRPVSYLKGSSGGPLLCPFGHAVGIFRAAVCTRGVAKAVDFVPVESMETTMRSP"}, "source": "patent US6197536A", "about": "“Methodology to produce, and purify and assay polypeptides with the proteolytic activity of the HCV NS3 protease” (priority 1995, dated 2001)", "key": {"HCV NS3 protease [1]": {"target": "T1, HCV NS3 protease (Hepatitis C virus genotype 1b, UniProt P26663)", "T1 construct": "The protein fragments contain variants of the protease domain of the HCV NS3 protein; added initiator Met (ATG start codon) (N); made in house", "assay": "Competitive inhibition of NS3 protease by decapeptides P6-P4' modified at position P1", "type": "biochemical", "details": "Table 6, competitive inhibitors", "protocol": "Cleavage was detected by separating the substrate from the hydrolysis products by reverse-phase HPLC. For this purpose the mixture containing the buffer and the peptide incubated with the protease was injected into a reverse-phase Lichrospher RP-18 column (Merck) and eluted with an acetonitrile gradient containing 0.10% trifluoracetic acid. The cleavage products were identified by co-injection of appropriate standards, and by mass spectrometry. For these experiments, proteins produced by one of the methods described in examples 1 and 2 were used.\nDependence of the activity on temperature was analysed by means of an Arrhenius plot in which the logarithm of the kinetic constant Kcat is given as an inverse function of temperature."}, "[2]": {"target": "T2, HCV NS3 protease + Pep4A (NS4A cofactor peptide) (Hepatitis C virus genotype 1b, UniProt P26663)", "T2 construct": "The protein fragments contain variants of the protease domain of the HCV NS3 protein; added initiator Met (ATG start codon) (N); made in house", "assay": "HPLC assay of peptide substrate cleavage by purified NS3 protease in the presence of Pep4A", "type": "biochemical", "details": "optimal assay conditions", "text": "As mentioned above, the protein NS4A is a cofactor of HCV protease. N and C-terminal deletion experiments have defined the peptide Pep4A with the sequence indicated in SEQ ID NO:6, as the minimum domain still capable of inducing optimal activation. In transfection or in vitro translation experiments the addition of polypeptides containing the minimum NS4A sequence is essential to give effective cleavage. […] The kinetic characteristics of this activation are described below. Using a titration experiment a stoichiometry of 1:1 was determined for this interaction at a concentration of […] of protease, indicating a Kd<300 nM.\nThese kinetics were obtained both in the absence and in the presence of stechiometric concentrations of Pep4A. […] When the Km values for the single substrates are compared it becomes evident that the presence of two negative charges in P5 and in P6 determined the bonding effectiveness of a peptide substrate."}, "HCV NS3 protease [3]": {"target": "T1, HCV NS3 protease", "assay": "Titration of purified protease with Pep4A", "type": "binding", "details": "titration at 300 nm of protease"}}, "note": "At least one peptide structure holds a part that was inferred or is arguable (an end, a ring closure or a residue). Non-standard residues stand in square brackets, D forms with d. Residues, ends and D or L forms follow the SMILES beside them. No end group written: not given here. Cha = N[C@@H](CC1CCCCC1)C(=O)O"}
{"compound": "Ac-DEMEESASHL [Ser]", "values": [{"measurement": "Ki", "setting": "HCV NS3 protease [1]", "value": 90, "unit": "µM"}]}
{"compound": "Ac-DEMEEGASHL [Gly]", "values": [{"measurement": "Ki", "setting": "HCV NS3 protease [1]", "value": 191, "unit": "µM"}]}
{"compound": "Ac-DEMEEPASHL [Pro]", "values": [{"measurement": "Ki", "setting": "HCV NS3 protease [1]", "value": 440, "unit": "µM"}]}
{"compound": "GSVVIVGRIILSGR [Pep4A]", "values": [{"measurement": "effect of addition on the activity of purified protease", "setting": "[2]", "value": "significant increase in the activity"}, {"measurement": "Kd", "setting": "HCV NS3 protease [3]", "value": "< 0.3", "unit": "µM"}]}
{"compound": "CSCC[C@H](NC(=O)[C@H](CCC(=O)O)NC(=O)[C@H](CC(=O)O)NC(C)=O)C(=O)N[C@@H](CCC(=O)O)C(=O)N[C@@H](CCC(=O)O)C(=O)N[C@@H](CC1CCCCC1)C(=O)N[C@@H](C)C(=O)N[C@@H](CO)C(=O)N[C@@H](Cc1c[nH]cn1)C(=O)N[C@@H](CC(C)C)C(=O)O", "note": "[Cha] (Ac-DEMEE[Cha]ASHL-OH)", "values": [{"measurement": "Ki", "setting": "HCV NS3 protease [1]", "value": 350, "unit": "µM"}]}
